In PubChem BioAssay AID588497 (NMMLSC, 2011):
Hit rate of the full screen: of about 360,000 compounds, about 780 (0.22%) were called active. Inconclusive means that the source gave no clear call. Such entries were picked first, then a sample of the others. No stated cut-off is given here; in the data, active means inhibition above about 35% (passing the limit was not always enough); inconclusive means no clear call, values can overlap the other calls.

Each molecule was assayed on Botulinum neurotoxin type F light chain protease (Clostridium botulinum) (assay: BoNT/F light chain protease inhibitors, primary screen, biochemical, flow cytometry, MLPCN library (AID 588497; further: plate controls were buffer without enzyme for full effect and enzyme alone for no effect)). Settings: Multiplex microsphere protease cleavage assay, at 10 µM, hits give high values.

Q: For `c1ccc(N=Nc2ccc(C3=NCCO3)cc2)cc1`, which inhibition is on record?
A: Its inhibition is inactive: -4.6%.

Q: How did the inhibition turn out when `CCCCC(NC(=O)Cc1c(C)c2cc3c4c(oc3c(C)c2oc1=O)CCCC4)C(=O)O` (stereo not drawn) was run?
A: Its inhibition is inactive: 15.7%.

Q: How did the inhibition turn out when `O=C(NCc1csc(-c2cccs2)n1)c1ccsc1` was run?
A: Its inhibition is inconclusive: 32%.

Q: `COc1ccc(CCNC2=C(Cl)C(=O)N(CCc3ccc(OC)c(OC)c3)C2=O)cc1OC` was tested. Which inhibition did it give?
A: Its inhibition is inconclusive: -33.7%.

Q: How did the inhibition turn out when `O=C(NNC(=S)Nc1ccc(Cl)c(Cl)c1)c1cccc([N+](=O)[O-])c1` was run?
A: The inhibition was inconclusive: -15.7%.

Q: `CC(O)CNc1nc2c(c(=O)n(Cc3cccc(Cl)c3)c(=O)n2C)n1C` (stereo not drawn) was tested. Which inhibition did it give?
A: Its inhibition is inconclusive: 35.6%.

Q: With `Cc1cccn(Cc2c(F)cccc2Cl)c1=O` as the molecule, how does the inhibition read?
A: The inhibition was inconclusive: -31.5%.

Q: How did the inhibition turn out when `COc1ccc(S(=O)(=O)NC(C)C(=O)NCc2cccnc2)cc1OC` (stereo not drawn) was run?
A: The inhibition was active: 44%.

Q: With `CCc1c(C)c(C#N)c2nc3ccccc3n2c1NCC1CCCO1` (stereo not drawn) as the molecule, how does the inhibition read?
A: Its inhibition is inactive: 4.8%.

Q: `CCC(C)c1ccc(NC(=O)c2c([N+](=O)[O-])cnn2CC)cc1` (stereo not drawn) was tested. Which inhibition did it give?
A: Its inhibition is inconclusive: -7.2%.

Q: Which inhibition does the source give for `CCN(CC)C(=O)c1csc(Nc2cccc3ccccc23)n1` here?
A: The inhibition was inconclusive: -0.6%.

Q: How did the inhibition turn out when `Cc1ccc(/C(N)=N/OC(=O)N2c3ccccc3Sc3ccccc32)cc1` was run?
A: The inhibition was inactive: -18%.

Q: With `COCCCNc1nc2c(c(=O)n(Cc3cccc(Br)c3)c(=O)n2C)n1C` as the molecule, how does the inhibition read?
A: The inhibition was inconclusive: -18.9%.

Q: For `O=C(NC(=O)c1ccccc1O)c1ccc(C(F)(F)F)cc1`, which inhibition is on record?
A: The inhibition was inconclusive: -57.5%.

Q: With `O=S(=O)(NCC(Nc1ccc(Cl)cc1)c1ccccc1)c1ccccc1` (stereo not drawn) as the molecule, how does the inhibition read?
A: Its inhibition is inactive: -39.7%.

Q: With `Cc1cc(C)c(S(=O)(=O)N(CC(=O)O)C2CCCCC2)c(C)c1` as the molecule, how does the inhibition read?
A: Its inhibition is inconclusive: 3.9%.

Q: For `O=C(OCC(=O)N1CCc2ccccc21)[C@@H]1CC(O)CN1S(=O)(=O)c1ccccc1[N+](=O)[O-]` (stereo partly drawn), which inhibition is on record?
A: The inhibition was inconclusive: -11.9%.

Q: How did the inhibition turn out when `CCN(CC)c1ccc(/C=C/C(=O)c2ccc(Br)cc2)cc1` was run?
A: The inhibition was active: 81.2%.

Q: Which inhibition does the source give for `Brc1ccc(Oc2ncc(CN3CCOCC3)s2)cc1` here?
A: The inhibition was inactive: 11.9%.

Q: For `O=C(O)C1Nc2c(Cl)cc(Cl)c(Cl)c2C2C=CCC12` (stereo not drawn), which inhibition is on record?
A: The inhibition was inconclusive: -40.5%.

Q: With `CC(C)(C)c1cc(C(=O)N/N=C/c2ccccn2)n[nH]1` as the molecule, how does the inhibition read?
A: The inhibition was inconclusive: 0.3%.

Q: How did the inhibition turn out when `COCc1cc(=O)n2[nH]c(-c3cccs3)cc2n1` was run?
A: The inhibition was inconclusive: -3.9%.

Q: With `CCN(CC(=O)NC1CCS(=O)(=O)C1)c1ccc(S(=O)(=O)N(CC)CC)cc1[N+](=O)[O-]` (stereo not drawn) as the molecule, how does the inhibition read?
A: Its inhibition is inactive: 4.7%.

Q: How did the inhibition turn out when `COc1ccccc1C(=O)N1CCN=C1SC` was run?
A: Its inhibition is inconclusive: 8.5%.

Q: How did the inhibition turn out when `CCOc1ccc2nc(COC(=O)c3cccs3)c(C(C)=O)[n+]([O-])c2c1` was run?
A: The inhibition was inconclusive: -37%.

Q: With `CCOc1cccc(C2CC(=O)Nc3cc(OC)c(OC)cc32)c1` (stereo not drawn) as the molecule, how does the inhibition read?
A: The inhibition was inconclusive: -50%.

Q: Which inhibition does the source give for `O=c1[nH]c(=O)n(CCO)c2nnn(Cc3ccccc3)c12` here?
A: Its inhibition is inconclusive: 2.5%.

Q: `CCOc1cccc(C(=O)Nc2ccc(NC(=O)c3ccccc3)c(C)c2)c1` was tested. Which inhibition did it give?
A: The inhibition was inconclusive: 16.3%.

Q: `O=C(CC(C(=O)O)C1CCCO1)NCc1ccccc1` (stereo not drawn) was tested. Which inhibition did it give?
A: The inhibition was inconclusive: -17%.

Q: With `CCOC(=O)C1(C(F)(F)F)N=C(c2cccnc2)OC(N2CCOCC2)=N1` (stereo not drawn) as the molecule, how does the inhibition read?
A: Its inhibition is inconclusive: 12.7%.

Q: For `CCNC(=O)/C(C#N)=C/c1c(N2CCN(c3ccc(OC)cc3)CC2)nc2c(C)cccn2c1=O`, which inhibition is on record?
A: Its inhibition is inconclusive: 0.8%.

Q: `CC(C)N(C)Cc1nnnn1CC(=O)NCCc1cccc(C(F)(F)F)c1` was tested. Which inhibition did it give?
A: Its inhibition is inconclusive: 2.2%.

Q: For `COc1ccc(NC(=O)CCn2c(=O)c3cccn3c3ccccc32)c(OC)c1`, which inhibition is on record?
A: The inhibition was inactive: -5%.

Q: How did the inhibition turn out when `COc1ccc(NC(=O)CN(C)C(=O)C2CC(=O)N(CCc3ccc(OC)c(OC)c3)C2)cc1` (stereo not drawn) was run?
A: The inhibition was inconclusive: 0.8%.

Q: With `O=C(COC(=O)COc1ccc(Cl)cc1)NC1CCS(=O)(=O)C1` (stereo not drawn) as the molecule, how does the inhibition read?
A: Its inhibition is inactive: 9%.

Q: With `FC(F)(F)c1cc(Oc2ccc(Cl)cc2)ncc1-c1nnc(-c2ccc(Cl)cc2)o1` as the molecule, how does the inhibition read?
A: Its inhibition is inconclusive: -18%.

Q: `O=C(c1ccccc1)N1N=C(C(F)(F)F)CC1(O)c1ccccc1O` (stereo not drawn) was tested. Which inhibition did it give?
A: The inhibition was inconclusive: 0.9%.

Q: Which inhibition does the source give for `COc1ccc(CC(=O)Nc2ccc3c(c2)C(=O)N(CCC(=O)O)C3=O)cc1` here?
A: The inhibition was inconclusive: -4.7%.

Q: Which inhibition does the source give for `CCC(NC(=O)CSc1nnnn1C1CC1)c1ccc(Br)cc1` (stereo not drawn) here?
A: Its inhibition is inactive: -14.3%.

Q: With `FC(F)(F)c1cc(-c2cccs2)nc2ncnn12` as the molecule, how does the inhibition read?
A: Its inhibition is inactive: 2%.

Q: For `CCCc1nc2c3ccccc3ccn2c1Cc1ccccc1C(F)(F)F`, which inhibition is on record?
A: Its inhibition is inactive: 1%.

Q: For `O=C1OCCN1C(=O)[C@H]1[C@H](c2ccc(Cl)cc2)C(c2ccc(F)cc2)=NN1c1ccc(Br)cc1`, which inhibition is on record?
A: Its inhibition is inactive: -3.5%.

Q: `COc1ccc(C(=O)NC(=S)Nc2ccc(N3CCN(C(C)=O)CC3)cc2)cc1[N+](=O)[O-]` was tested. Which inhibition did it give?
A: Its inhibition is inconclusive: -1%.

Q: With `N#CC(c1nc2ccccc2nc1N1CCOCC1)S(=O)(=O)c1ccccc1` (stereo not drawn) as the molecule, how does the inhibition read?
A: The inhibition was inconclusive: 7.5%.

Q: For `COc1ccc(C)cc1NC(=O)CSCc1ccccc1C`, which inhibition is on record?
A: Its inhibition is inactive: 1.1%.

Q: Which inhibition does the source give for `Cc1cc(C(N)=O)nn1-c1c(Cl)cc(Cl)cc1Cl` here?
A: Its inhibition is inconclusive: 69.7%.

Q: `O=C(NC(CCl)c1ccccc1)c1ccc(Cl)cc1` (stereo not drawn) was tested. Which inhibition did it give?
A: The inhibition was inactive: -9.5%.

Q: With `CCOC(=O)c1c(C)n(C)c2ccc(OCC(O)Cn3c(C)nc4ccccc43)cc12` (stereo not drawn) as the molecule, how does the inhibition read?
A: Its inhibition is inactive: -2.3%.

Q: For `CCOc1ccc(C(=O)O/N=C(\N)c2ccccn2)cc1`, which inhibition is on record?
A: The inhibition was inconclusive: -41.5%.

Q: For `Cc1ccccc1OCC(=O)Nc1nnc(-c2ccncc2)s1`, which inhibition is on record?
A: The inhibition was inconclusive: 6.1%.

Q: Which inhibition does the source give for `Cc1onc(-c2ccccc2)c1-c1ccnn1C(=O)NC(C)C` here?
A: Its inhibition is inconclusive: 12.6%.

Q: `Cc1cc(N2CCN(C(=O)c3ccco3)CC2)c2ccccc2n1` was tested. Which inhibition did it give?
A: Its inhibition is inconclusive: 2.1%.

Q: For `CCCS(=O)(=O)N1CCC(C(=O)NCCCN2CCCC2=O)CC1`, which inhibition is on record?
A: Its inhibition is inactive: -4.4%.

Q: How did the inhibition turn out when `O=C(NC1CCCC1)C(c1ccccc1)N(C(=O)c1ccno1)c1ccccc1` (stereo not drawn) was run?
A: The inhibition was inconclusive: -29%.

Q: How did the inhibition turn out when `CC(C)(C)C(=O)Cn1nnc(-c2ccc(C(F)(F)F)cc2)n1` was run?
A: Its inhibition is inactive: -5.3%.

Q: Which inhibition does the source give for `O=C(NCc1cc2ccccc2[nH]1)c1ccccc1F` here?
A: The inhibition was inconclusive: -15.2%.

Q: Which inhibition does the source give for `Cc1ccc(NC(=O)C(=O)Nc2ccc(C)cn2)nc1` here?
A: Its inhibition is inactive: -2.3%.

Q: With `COc1ccc(CCNC(=O)C(=O)NCC2CCCN2S(=O)(=O)c2cc(C)ccc2C)cc1` (stereo not drawn) as the molecule, how does the inhibition read?
A: Its inhibition is inconclusive: 1.1%.
